PubChem BioAssay AID652259 | Drosophila RNAi Screening Center – 2013

Test: 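Identify new Wingless signalling regulators in fly cells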 (primary screen)
Cells: Drosophila clone 8 imaginal disc epithelial cells
Reagents: long dsRNA against Drosophila genes
Treatment: pathway stimulated by co-transfected Wingless expression plasmid
Read-out: 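Dual luciferase reads per well after Wingless plasmid stimulation: reporter firefly light and Renilla control light; activity is firefly divided by Renilla, a ratio not deposited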
Reading the numbers: firefly reporter light: higher = more Wg reporter light, before normalisation; Renilla control light: higher = more transfected or surviving cells
Rule for the call: 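a knock-down is a candidate when at least two out of four statistical tests show it departing from its plate mean; one test alone signals a weak candidate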
Meaning of the calls: active = candidate regulator (raises or lowers reporter); inactive = not a candidate
In all, the deposit lists about 22,000 reagents; this is a random part of those that have a named target and a result. Of all reagents, 233 (1.1%) got an active call. 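Light values are raw, unnormalised plate reads; the ratio scores behind the reporter calls were not deposited.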 Unmarked entries are inactive. A plus sign joins genes that one reagent is predicted to hit. The record does not give: the amount of reagent, the time to read-out, the dose of the treatment.

gene knocked down	dsRNA	firefly reporter light, replicate 1	firefly reporter light, replicate 2	Renilla control light, replicate 1	Renilla control light, replicate 2
AIF	DRSC00696	8877		2187	
Srlp	DRSC15890	9227		1744	
Gclc	DRSC18666	17465		9413	
CG33493	DRSC10642	8621		3235	
GstE13	DRSC06083	6763		2632	
Alg11	DRSC11647	10544		5588	
EloC	DRSC07423	4528		2354	
ND-SGDH	DRSC11102	6919		2368	
CG34327	DRSC19517	21088		11139	
CG34327	DRSC22380	7.61e5	8.97e5	3.68e5	3.60e5
beat-Ia	DRSC03489	2485	10544	916	3408
Noc2	DRSC03165	6517		2231	
kek5	DRSC19438	17690		8516	
CG4615	DRSC17491	3704		677	
CG4615	DRSC18376	2778	5127	800	1744
CG2794	DRSC00534	2923	6219	1164	2662
CG15482	DRSC02492	2283	5099	1170	2861
CG11112	DRSC06038	2416	5355	594	1684
Prosalpha5	DRSC07514	12605		1302	
ms(3)K81	DRSC14746	6055		3239	
Mnat9	DRSC14325	14608		12391	
CG15715	DRSC10216	8920		4122	
CG7044	DRSC16180	14651		3956	
Hs3st-B	DRSC20067	24106		10353	
CG12713	DRSC09900	4196		1627	
CG34248	DRSC09426	3037		1436	
Mpcp2	DRSC11226	4982		2608	
CG32712	DRSC17820	3981	9064	533	1719
Cyt-c1	DRSC10447	5331		2455	
Rab9Db + Rab9D + Rab9Fa + 1 more	DRSC17662	2436		1187	
CG15027	DRSC19608	18112		11258	
CG18336	DRSC06334	6888		2616	
Jasper	DRSC16352	2362	5466	925	1872
Rop	DRSC08693	10104		1661	
RN-tre	DRSC07521	12034		3226	
CG11400	DRSC06070	4356		1764	
CG14011	DRSC02343	1888	5714	779	2753
CG12877	DRSC14565	10445		2869	
CG2111	DRSC18205	13300		7541	
asun	DRSC16733	3849	7170	1653	2881
Cpr12A	DRSC19722	22060		11264	
CG31296	DRSC13092	2090		937	
CG14443	DRSC17936	17937		8599	
Rsod	DRSC15424	5788		2091	
Atxn7	DRSC00726	13161		5500	
CG10384	DRSC03933	20375		9393	
CG10384	DRSC04067	3144	6369	496	2394
CG8064	DRSC16373	1942	2962	1200	1420
CG16853	DRSC01877	2493	4715	917	1724

6 of these entries in another layout.
{"gene knocked down": "CG4615", "dsRNA": "DRSC17491", "firefly reporter light, replicate 1": 3704, "Renilla control light, replicate 1": 677}
{"gene knocked down": "CG4615", "dsRNA": "DRSC18376", "firefly reporter light, replicate 1": 2778, "firefly reporter light, replicate 2": 5127, "Renilla control light, replicate 1": 800, "Renilla control light, replicate 2": 1744}
{"gene knocked down": "CG2794", "dsRNA": "DRSC00534", "firefly reporter light, replicate 1": 2923, "firefly reporter light, replicate 2": 6219, "Renilla control light, replicate 1": 1164, "Renilla control light, replicate 2": 2662}
{"gene knocked down": "CG15482", "dsRNA": "DRSC02492", "firefly reporter light, replicate 1": 2283, "firefly reporter light, replicate 2": 5099, "Renilla control light, replicate 1": 1170, "Renilla control light, replicate 2": 2861}
{"gene knocked down": "CG11112", "dsRNA": "DRSC06038", "firefly reporter light, replicate 1": 2416, "firefly reporter light, replicate 2": 5355, "Renilla control light, replicate 1": 594, "Renilla control light, replicate 2": 1684}
{"gene knocked down": "Prosalpha5", "dsRNA": "DRSC07514", "firefly reporter light, replicate 1": 12605, "Renilla control light, replicate 1": 1302}
